Experimental data reported in the supplement of paper PMC4604168 (melanoma cell lines).
The list shows a part of the results. Repeats are few or missing, and single values can be far off.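 Cells were imaged in 1,536-well plates, and nuclei stained with an antibody against cleaved PARP were counted against all DNA-stained nuclei to give the apoptosis fraction. Screening doses were chosen to leave most cells alive, and resting and induced cleaved-PARP levels differ strongly between cell lines.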

system: MeWo; test: cleaved PARP positive nuclei fraction relative to DMSO control; melanoma cells; higher = more apoptosis; details: library dose: low library concentration; 72 h

Structure (SMILES) | cleaved PARP positive nuclei fraction
Cc1ccc(Nc2nccc(N(C)c3ccc4c(C)n(C)nc4c3)n2)cc1S(N)(=O)=O [Pazopanib] + O=C(Nc1cccc(Cl)c1)Nc1ncc(CCNc2ncnc3ccsc23)s1 [SNS314] (first compound 0.4 µM, partner dose 0.0008 µM) | 54.7%
CC[C@]1(O)C[C@H]2CN(CCc3c([nH]c4ccccc34)[C@@](C(=O)OC)(c3cc4c(cc3OC)N(C=O)[C@H]3[C@@](O)(C(=O)OC)[C@H](OC(C)=O)[C@]5(CC)C=CCN6CC[C@]43[C@@H]65)C2)C1 [vincristine] + COc1ccc(-c2ccc3c(N4CCOCC4)nc(N4C[C@@H](C)O[C@@H](C)C4)nc3n2)cc1CO [KU0063794] (first compound 0.0001 µM, partner dose 0.02 µM) | 28.6%
O=c1[nH]nc(Sc2ncc([N+](=O)[O-])s2)n1-c1ccc2c(c1)OCCO2 + COc1cc(Nc2ncc(F)c(Nc3ccc4c(n3)NC(=O)C(C)(C)O4)n2)cc(OC)c1OC [Tamatinib] (first compound 0.2 µM, partner dose 0.4 µM) | 129%
O=C(/C=C/c1cccnc1)NCCCCC1CCN(C(=O)c2ccccc2)CC1 + Cc1cc(N2CCOCC2)cc2[nH]c(-c3c(NC[C@@H](O)c4cccc(Cl)c4)cc[nH]c3=O)nc12 [BMS536924] (first compound 0.01 µM, partner dose 0.2 µM) | 49.1%
Cc1cc(Nc2cc(N3CCN(C)CC3)nc(Sc3ccc(NC(=O)C4CC4)cc3)n2)n[nH]1 [Tozasertib] + CC1(C)NC(=O)N(c2ccc([N+](=O)[O-])c(C(F)(F)F)c2)C1=O [nilutamide] (first compound 0.006 µM, partner dose 1 µM) | 338%
O=C(/C=C/c1cccnc1)NCCCCC1CCN(C(=O)c2ccccc2)CC1 + O=S(=O)(c1ccccc1)N(CC(F)(F)F)c1ccc(C(O)(C(F)(F)F)C(F)(F)F)cc1 [T0901317] (first compound 0.01 µM, partner dose 1.4 µM) | 76.8%
CC[C@]1(O)C[C@H]2CN(CCc3c([nH]c4ccccc34)[C@@](C(=O)OC)(c3cc4c(cc3OC)N(C=O)[C@H]3[C@@](O)(C(=O)OC)[C@H](OC(C)=O)[C@]5(CC)C=CCN6CC[C@]43[C@@H]65)C2)C1 [vincristine] + Cc1cc(N2CCOCC2)cc2[nH]c(-c3c(NC[C@@H](O)c4cccc(Cl)c4)cc[nH]c3=O)nc12 [BMS536924] (first compound 0.0001 µM, partner dose 0.2 µM) | 166%
O=c1[nH]nc(Sc2ncc([N+](=O)[O-])s2)n1-c1ccc2c(c1)OCCO2 + O=c1cc(-c2cccc3c2Sc2ccccc2S3)oc(N2CCOCC2)c1 [KU55933] (first compound 0.2 µM, partner dose 1 µM) | 57.8%
COc1cc([C@@H]2c3cc4c(cc3[C@@H](O[C@@H]3O[C@@H]5CO[C@@H](C)O[C@H]5[C@H](O)[C@H]3O)[C@H]3COC(=O)[C@H]23)OCO4)cc(OC)c1O [etoposide] + O=C1NC(=O)/C(=C/c2ccc(-c3ccc(F)cc3O)o2)S1 [AS252424] (first compound 0.02 µM, partner dose 1 µM) | 141%
Cc1cn(-c2cc(NC(=O)c3ccc(C)c(Nc4nccc(-c5cccnc5)n4)c3)cc(C(F)(F)F)c2)cn1 [nilotinib] + CCCCCCCCCCCC1=C(O)C(=O)C=C(O)C1=O [Embelin] (first compound 0.2 µM, partner dose 1.2 µM) | 37.8%
O=c1[nH]nc(Sc2ncc([N+](=O)[O-])s2)n1-c1ccc2c(c1)OCCO2 + CCCCCCCCCCCC1=C(O)C(=O)C=C(O)C1=O [Embelin] (first compound 0.2 µM, partner dose 1.2 µM) | 88.5%
O=c1[nH]nc(Sc2ncc([N+](=O)[O-])s2)n1-c1ccc2c(c1)OCCO2 + O=C(Nc1cccc(Cl)c1)Nc1ncc(CCNc2ncnc3ccsc23)s1 [SNS314] (first compound 0.2 µM, partner dose 0.0008 µM) | 158%
CCCCCCCCCCCCCCCCCCOP(=O)([O-])OC1CC[N+](C)(C)CC1 [Perifosine] + NC(=O)Nc1cc(-c2cccc(F)c2)sc1C(=O)N[C@H]1CCCNC1 [AZD7762] (first compound 0.4 µM, partner dose 0.02 µM) | 60.7%
COc1cc([C@@H]2c3cc4c(cc3[C@@H](O[C@@H]3O[C@@H]5CO[C@@H](C)O[C@H]5[C@H](O)[C@H]3O)[C@H]3COC(=O)[C@H]23)OCO4)cc(OC)c1O [etoposide] + COc1cc(N2CCC(N3CCN(C)CC3)CC2)ccc1Nc1ncc(Cl)c(Nc2ccccc2S(=O)(=O)C(C)C)n1 [NVP-TAE684] (first compound 0.02 µM, partner dose 0.08 µM) | 93.5%
Cc1cc(Nc2cc(N3CCN(C)CC3)nc(Sc3ccc(NC(=O)C4CC4)cc3)n2)n[nH]1 [Tozasertib] + COc1cc(N2CCC(N3CCN(C)CC3)CC2)ccc1Nc1ncc(Cl)c(Nc2ccccc2S(=O)(=O)C(C)C)n1 [NVP-TAE684] (first compound 0.006 µM, partner dose 0.08 µM) | 102%
CCCCCCCCCCCCCCCCCCOP(=O)([O-])OC1CC[N+](C)(C)CC1 [Perifosine] + O=S(=O)(c1ccccc1)N(CC(F)(F)F)c1ccc(C(O)(C(F)(F)F)C(F)(F)F)cc1 [T0901317] (first compound 0.4 µM, partner dose 1.4 µM) | 89.1%
CC[C@]1(O)C[C@H]2CN(CCc3c([nH]c4ccccc34)[C@@](C(=O)OC)(c3cc4c(cc3OC)N(C=O)[C@H]3[C@@](O)(C(=O)OC)[C@H](OC(C)=O)[C@]5(CC)C=CCN6CC[C@]43[C@@H]65)C2)C1 [vincristine] + Cn1cncc1[C@@](N)(c1ccc(Cl)cc1)c1ccc2c(c1)c(-c1cccc(Cl)c1)cc(=O)n2C [tipifarnib] (first compound 0.0001 µM, partner dose 0.01 µM) | 126%
Cc1cn(-c2cc(NC(=O)c3ccc(C)c(Nc4nccc(-c5cccnc5)n4)c3)cc(C(F)(F)F)c2)cn1 [nilotinib] + CN(NC(=O)CC(=O)NN(C)C(=S)c1ccccc1)C(=S)c1ccccc1 [STA4783] (first compound 0.2 µM, partner dose 0.006 µM) | 41.1%
O=C(/C=C/c1cccnc1)NCCCCC1CCN(C(=O)c2ccccc2)CC1 + O=C(Nc1ccccc1)c1cc([N+](=O)[O-])ccc1Cl [GW9662] (first compound 0.01 µM, partner dose 2 µM) | 111%
CC[C@]1(O)C[C@H]2CN(CCc3c([nH]c4ccccc34)[C@@](C(=O)OC)(c3cc4c(cc3OC)N(C=O)[C@H]3[C@@](O)(C(=O)OC)[C@H](OC(C)=O)[C@]5(CC)C=CCN6CC[C@]43[C@@H]65)C2)C1 [vincristine] + O=c1cc(-c2cccc3c2Sc2ccccc2S3)oc(N2CCOCC2)c1 [KU55933] (first compound 0.0001 µM, partner dose 1 µM) | 124%
N#CC[C@H](C1CCCC1)n1cc(-c2ncnc3[nH]ccc23)cn1 [ruxolitinib] + NCC(=O)Nc1ccc(-n2nc(C(F)(F)F)cc2-c2ccc3c(ccc4ccccc43)c2)cc1 [OSU03012] (first compound 1 µM, partner dose 1 µM) | 101%
O=c1[nH]nc(Sc2ncc([N+](=O)[O-])s2)n1-c1ccc2c(c1)OCCO2 + CC(C)CCN1c2nc(Nc3cc(F)c(O)c(F)c3)ncc2N(C)C(=O)C1C [BID1870] (first compound 0.2 µM, partner dose 0.2 µM) | 68.4%
Cc1cn(-c2cc(NC(=O)c3ccc(C)c(Nc4nccc(-c5cccnc5)n4)c3)cc(C(F)(F)F)c2)cn1 [nilotinib] + O=C(Nc1cccc(Cl)c1)Nc1ncc(CCNc2ncnc3ccsc23)s1 [SNS314] (first compound 0.2 µM, partner dose 0.0008 µM) | 51.3%
Cc1ccc(Nc2nccc(N(C)c3ccc4c(C)n(C)nc4c3)n2)cc1S(N)(=O)=O [Pazopanib] + O=S(=O)(c1ccccc1)N(CC(F)(F)F)c1ccc(C(O)(C(F)(F)F)C(F)(F)F)cc1 [T0901317] (first compound 0.4 µM, partner dose 1.4 µM) | 87.4%
CCCCCCCCCCCCCCCCCCOP(=O)([O-])OC1CC[N+](C)(C)CC1 [Perifosine] + CC(C)(C)c1cnc(CSc2cnc(NC(=O)C3CCNCC3)s2)o1 [SNS-032] (first compound 0.4 µM, partner dose 0.01 µM) | 34.7%

Reprinted at random: two records from the list, in no set order.
Structure (SMILES) | cleaved PARP positive nuclei fraction
O=C(/C=C/c1cccnc1)NCCCCC1CCN(C(=O)c2ccccc2)CC1 + O=C(Nc1ccccc1)c1cc([N+](=O)[O-])ccc1Cl [GW9662] (first compound 0.01 µM, partner dose 2 µM) | 111%
Cc1cn(-c2cc(NC(=O)c3ccc(C)c(Nc4nccc(-c5cccnc5)n4)c3)cc(C(F)(F)F)c2)cn1 [nilotinib] + O=C(Nc1cccc(Cl)c1)Nc1ncc(CCNc2ncnc3ccsc23)s1 [SNS314] (first compound 0.2 µM, partner dose 0.0008 µM) | 51.3%
